# Results are given in words; binding and its absence hold for the method and conditions named. Binding seen in cells or lysates may run through a third protein. Some results given as binding are weak or reduced against the parent protein; the word gives no strength.
# T1: human 6His-14-3-3ζ (human, UniProt P63104 1-245)
# T1 sequence (looked up): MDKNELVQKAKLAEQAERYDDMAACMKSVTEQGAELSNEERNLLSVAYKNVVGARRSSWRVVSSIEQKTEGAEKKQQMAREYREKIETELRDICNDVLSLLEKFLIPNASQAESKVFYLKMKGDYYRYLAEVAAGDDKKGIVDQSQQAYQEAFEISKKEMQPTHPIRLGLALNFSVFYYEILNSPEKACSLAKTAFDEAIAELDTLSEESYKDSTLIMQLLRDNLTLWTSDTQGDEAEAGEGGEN
# Molecular target: T1, human 6His-14-3-3ζ
# Assay: pull-down
row,binding,Molecule
1,binds,SNAP-TM-HCN1CT reporter CT_(598-910) (from UniProt O88704 598-910) (domain or fragment)
2,binds,full-length HCN1 expressed in HEK293 cells (from UniProt O88704 1-910)
3,binds,"HCN1 (endogenous, mouse retina and whole brain) (from UniProt O88704 1-910)"
4,no binding,"SNAP-TM-HCN1CT reporter CT_(598-698) (domain or fragment, UniProt O88704 598-698) LNTGVFNNQENEILKQIVKHDREMVQAIPPINYPQMTALNCTSSTTTPTSRMRTQSPPVYTATSLSHSNLHSPSPSTQTPQPSAILSPCSYTTAVCSPPIQ"

# From doi:10.1101/2021.08.19.457009 (bioRxiv, 2021)
